{
  "sequences": {"note": "Chains of the proteins cited; added tags and fusions are not shown. Residues count along the entry.", "UniProt Q8NBP7, residues 31-692": "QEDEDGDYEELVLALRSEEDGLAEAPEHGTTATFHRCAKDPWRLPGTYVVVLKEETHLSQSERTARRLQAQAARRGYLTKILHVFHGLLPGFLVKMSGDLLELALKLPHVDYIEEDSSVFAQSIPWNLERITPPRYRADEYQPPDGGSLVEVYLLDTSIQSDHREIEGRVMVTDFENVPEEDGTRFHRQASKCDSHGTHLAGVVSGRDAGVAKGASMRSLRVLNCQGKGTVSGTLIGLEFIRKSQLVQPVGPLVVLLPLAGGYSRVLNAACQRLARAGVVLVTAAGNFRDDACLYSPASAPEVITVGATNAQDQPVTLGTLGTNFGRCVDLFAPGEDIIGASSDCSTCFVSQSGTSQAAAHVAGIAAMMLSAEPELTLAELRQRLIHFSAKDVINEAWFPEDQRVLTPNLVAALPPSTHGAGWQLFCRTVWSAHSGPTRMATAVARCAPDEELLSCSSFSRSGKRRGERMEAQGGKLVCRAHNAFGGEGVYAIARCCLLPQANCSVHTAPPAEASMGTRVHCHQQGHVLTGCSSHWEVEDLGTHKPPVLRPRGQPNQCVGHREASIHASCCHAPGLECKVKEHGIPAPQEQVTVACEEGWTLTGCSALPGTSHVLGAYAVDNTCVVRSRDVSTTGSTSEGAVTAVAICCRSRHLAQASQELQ"},
  "source": "patent US20160369010A1",
  "key": {"[1]": {"biological_target": "Recombinant human Avi_PCSK9_Flag_His (human) (UniProt Q8NBP7)", "assay": "ELISA on coated human PCSK9"}, "[2]": {"biological_target": "Recombinant human Avi_PCSK9_Flag_His (human) (UniProt Q8NBP7)", "assay": "binding ELISA on coated human PCSK9 (10 ug/mL), compound at 100 ug/mL, detection with cryptate labelled Fc specific anti human IgG"}},
  "note": "Results are given in words; binding and its absence hold for the method and conditions named. Some binding calls cover weakened binding; strength is not graded here.",
  "data": [
    {"binder": "PC9#1_DSB7_V19A (antibody, IgG1) VH: QVQLVQSGAEVKKPGASVKVSCKASGYTFTSYYMHWVRQAPGQGLEWMGEISPFGGRTNYNEKFKSRVTMTRDTSTSTVYMELSSLRSEDTAVYYCARERPLYASDLWGQGTTVTVSS VL: HGEGTFTSDLSKQMEEECARLFIEWLKNGGPSSGAPPPGCGGGGGSGGGGSGGGGSADIQMTQSPSSLSASVGDRVTITCRASQGISSALAWYQQKPGKAPKLLIYSASYRYTGVPSRFSGSGSGTDFTFTISSLQPEDIATYYCQQRYSLWRTFGQGTKLEIK", "values": [
      {"measurement": "binding", "setting": "[1]", "result": "binds"},
      {"measurement": "binding", "setting": "[2]", "result": "binds"}
    ]}
  ]
}
